# Screen size: about 330,000 compounds; about 7,700 (2.3%) were called active. Inconclusive results, whose numbers are uncertain, are shown with a selection of clear calls. The call rests on the fitted dose curve; in most records, active means well fitted inhibition curve with a large enough effect; inconclusive means small, poorly fitted or top-dose-only effect, or effect the other way; inactive means flat fitted curve, though single readings scatter. Potencies beside an inconclusive call are fits to weak or partial responses and may not hold up.
# Test: qHTS screen for small molecules that inhibit ELG1-dependent DNA repair in human embryonic kidney (HEK293T) cells expressing luciferase-tagged ELG1; further: nearly all actives have a fitted effect of over 55% in size
# Conditions: HEK293T ELG1-luciferase reporter, luminescence, 16 h, DNA damage induced by 5-fluorouridine; series mostly up to 46.1 µM
# Method in brief: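 Luminescence from the luciferase reporter, measured 30 min after ONE-Glo reagent at room temperature, was the read-out. Beforehand, 2,000 cells per well were exposed for 16 hr at 37 °C to 5-fluorouridine together with compound or vehicle.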
# Potency means the concentration at half of the fitted maximal effect.
row,SMILES,Potency
1,O=C(CN1CCCCC1)N/N=C/c1ccccc1Br,"inconclusive: 23.1 µM [activator, partial curve, poor fit]"
2,Cc1ccc(C(=O)c2ccc(O)cc2)cc1C,"inconclusive: 18.4 µM [activator, partial curve]"
3,CCC(C)c1ccc(NC(=S)NC(C)C2CCCO2)cc1 (configuration not stated),"inconclusive: 18.3 µM [activator, single point]"
4,Cc1occc1C(=O)N1CCCC(N2CCN(c3ccccc3F)CC2)C1 (configuration not stated),"inconclusive: 29.1 µM [inhibitor, single point]"
5,CC(C)(C)c1ccc(OCC(=O)N2CCCCCC2)c(Br)c1,"inconclusive: 20.6 µM [activator, partial curve]"
6,O=C(CN1CCN(C(=O)CCC(=O)N2CCC(c3ccccc3)=N2)CC1)Nc1ccc(F)cc1,"inconclusive: 32.6 µM [inhibitor, single point]"
7,Cc1cc(C)n(-c2nc3sc4c(c3c(=O)[nH]2)CCCC4)n1,inactive
8,CCn1c(/C=C/c2c[nH]c3ccccc23)nc2ccccc2c1=O,"inconclusive: 1.83 µM [activator, full curve]"
9,O=C(Cn1ncc(Cl)c(Cl)c1=O)N1CCOCC1,"inconclusive: 29.1 µM [inhibitor, single point]"
10,CC(C(=O)Nc1nncs1)N1C(=O)C2C3C=CC(C3)C2C1=O (configuration not stated),inactive
11,COc1ccc(-c2csc(N(CCCN(C)C)C(=O)c3ccc(C)cc3)n2)cc1,inactive
12,N#C/C(=N\Nc1cccc(C(F)(F)F)c1)C(=O)c1csc(-c2cccnc2)n1,"inconclusive: 23.1 µM [inhibitor, single point]"
13,CC(C)n1c(/C=C/c2ccccc2)nc2ccccc21,"inconclusive: 6.51 µM [activator, partial curve]"
14,COc1cc(CCNc2ccc3nnc(-c4ccccc4)n3n2)cc(OC)c1OC,inactive
15,CC(=O)O[C@H]1CC[C@H]2[C@@H]3CCc4cc(O)ccc4[C@H]3CC[C@]12C,"inconclusive: 18.4 µM [inhibitor, single point]"
16,CC1NC(=O)NC1CCCCCC(=O)Nc1ccc(F)c(Cl)c1 (configuration not stated),inactive
17,O=C(O)c1ccc(N/N=C/c2ccc(OC(=O)c3ccccc3Cl)cc2)cc1,"inconclusive: 0.92 µM [activator, full curve]"
18,Oc1ccc(-c2nnc(-c3ccccc3)c(-c3ccccc3)n2)cc1,"inconclusive: 25.9 µM [inhibitor, single point]"
19,COc1ccc(Cl)cc1NC(=S)NCCc1c[nH]c2ccccc12,inactive
20,O=C(Nc1ccc(O)cc1)c1ccccc1OCc1ccccc1,"inconclusive: 25.9 µM [inhibitor, single point]"
21,CN(C)/N=C/c1ccc(OS(=O)(=O)c2ccccc2)cc1,"inconclusive: 20.6 µM [activator, partial curve]"
22,N=c1sccn1CC(=O)Nc1cccc(Oc2ccccc2)c1,inactive
23,CC(C)Cc1cc(C(=O)N2CCCC(CCC(=O)N(C)CCc3ccccn3)C2)no1 (configuration not stated),"inconclusive: 29.1 µM [inhibitor, single point]"
24,O=C(NCCCSc1ccccc1)c1cc(Cl)ccc1O,inactive

row,SMILES,Potency
1,CCc1ccc(NC(=S)NC(=O)c2c(-c3ccccc3Cl)noc2C)cc1,inactive
2,CC1=NN(/C(=N\c2nnc(C)s2)Nc2ccccc2)[C@H](c2cccc3ccccc23)S1,"inconclusive: 29.1 µM [inhibitor, single point]"
3,CC(=O)c1ccc(NS(=O)(=O)c2ccc(C)cc2)cc1,inactive
4,CC(=O)N(c1ccc2oc(=O)sc2c1)S(=O)(=O)c1cccc2cccnc12,inactive
5,COc1ccc(/C=C2\SC(=S)N(CCCC(=O)Nc3ccccn3)C2=O)cc1OC,active: 16.4 µM
6,CC(=O)C(Cc1ccccc1)NC(=O)CCl (configuration not stated),inactive
7,C=CCn1c(COc2cc(C)ccc2C(C)C)nnc1SCC(=O)c1c(N)n(C)c(=O)n(C)c1=O,"inconclusive: 29.1 µM [inhibitor, partial curve, poor fit]"
8,Nc1nc(CSC(=S)N2CCCCC2)nc(Nc2ccccc2)n1,"inconclusive: 23.1 µM [activator, partial curve]"
9,Cc1cccc(NC(=O)CCN2C(=O)c3ccccc3S2(=O)=O)c1C,inactive
10,COc1ccccc1CN(C(=O)CNC(=O)c1ccco1)C(C(=O)NCC1CCCO1)c1ccccc1 (configuration not stated),"inconclusive: 18.3 µM [inhibitor, partial curve]"
11,CCOC(=O)N1CCN(Cc2nc3c(c(=O)n(C)c(=O)n3C)n2Cc2ccc(F)cc2)CC1,"inconclusive: 23.1 µM [inhibitor, partial curve]"
12,O=C(NCCc1c[nH]c2ccccc12)C(=O)NCC1OCCN1S(=O)(=O)c1cc(F)ccc1F (configuration not stated),"inconclusive: 29.1 µM [inhibitor, single point]"
13,CCOC(=O)N1CCC(NC(=O)c2cccc3c2C(=O)N(c2ccc(OC)cc2)C3)CC1,"inconclusive: 16.4 µM [inhibitor, partial curve]"
14,CN(C)c1ccc(/C=C/c2nnnn2-c2ccccc2)cc1,"inconclusive: 5.17 µM [activator, partial curve]"
15,O=C(Nc1c(F)c(F)c(F)c(F)c1F)NC1CCCCC1,inactive
16,COc1cc(C(=O)Nc2ccc(NC(C)=O)cc2)ccc1OCc1ccccc1,inactive
17,NC(=O)CC(NC(=O)c1ccccc1)c1ccc(NCc2ccccn2)c([N+](=O)[O-])c1 (configuration not stated),inactive
18,CC(C)(C)c1csc(NC(=O)CS(=O)(=O)c2ccccc2)n1,"inconclusive: 18.3 µM [activator, partial curve]"
19,CN1CCN(c2nc(-c3ccccn3)nc3ccccc23)CC1,"inconclusive: 29.1 µM [inhibitor, single point]"
20,O=C(c1ccncc1)N1N=C(C2CC2)CC1(O)C(F)(F)F (configuration not stated),inactive
21,C=CCn1c(-c2ccc(OC)c(OC)c2)cs/c1=N\c1ccccn1,inactive
22,CC(C)Cc1nc2oc3c(NCC(C)O)ncnc3c2c2c1CCCC2 (configuration not stated),active: 14.6 µM
23,CCCc1ccc(C2C3=C(CC(C)(C)CC3=O)NC3=C2C(=O)c2ccccc23)cc1 (configuration not stated),inactive

# Ordered by count of non-hydrogen atoms (rising): some entries from above.
row,SMILES,Potency
22,CC(C)Cc1nc2oc3c(NCC(C)O)ncnc3c2c2c1CCCC2 (configuration not stated),active: 14.6 µM
5,COc1ccc(/C=C2\SC(=S)N(CCCC(=O)Nc3ccccn3)C2=O)cc1OC,active: 16.4 µM
10,COc1ccccc1CN(C(=O)CNC(=O)c1ccco1)C(C(=O)NCC1CCCO1)c1ccccc1 (configuration not stated),"inconclusive: 18.3 µM [inhibitor, partial curve]"
